{
  "source": "patent US8278033B2",
  "about": "“Efficient well being assessment and improved treatment protocol” (priority 2008, dated 2012)",
  "key": {"[1]": {"system": "non-Hodgkin's Lymphoma (NHL) cells", "test": "Direct antitumor cell effects in non-Hodgkin's Lymphoma lymph node biopsy culture", "format": "cell-based, human", "details": "NHL lymph node biopsy sample, FIG. 6", "description": "(§1) A lymph node biopsy was obtained from a non-Hodgkin's Lymphoma patient and processed and stained as described above. […] The cells can also be imaged using publicly available “ImageJ” software available from the National Institutes of Health (NIH) to assist quantitation. The image is converted to 8-bit black and white threshold gated to paint only the dead endothelial cells.\nThe objective, automated ImageJ scores for both individual gated features and also for total area (originally in pixels squared) is shown. The raw scores for the gated features (putative dead endothelial cells) are normalized for uneven cell distributions by image analyzing each area twice: first with the detection threshold set to gate only the features of interest (putative dead endothelial cells) and then again to detect all features on the slide (this would be analogous to normalizing gene copy to total DNA in cell extracts). Shown additionally are the subjective (0+ to 5+) manual anti-vascular scores which were obtained one month before the installed the ImageJ software was installed. Shown additionally are the direct antitumor cell effects of each of the drugs and solvents tested."}, "endothelial cells": {"system": "endothelial cells", "test": "Anti-microvascular effects in non-Hodgkin's Lymphoma lymph node biopsy culture (ImageJ and manual scores)", "format": "cell-based, human", "details": "NHL lymph node biopsy sample, FIG. 6", "description": "as §1\nThe raw scores for the gated features (putative dead endothelial cells) are normalized for uneven cell distributions by image analyzing each area twice: first with the detection threshold set to gate only the features of interest (putative dead endothelial cells) and then again to detect all features on the slide (this would be analogous to normalizing gene copy to total DNA in cell extracts)."}},
  "note": "At least one structure is not confirmed: it was looked up by name or label, or the drawing left a doubt.",
  "data": [
    {"smiles": "Nc1nc(F)nc2c1ncn2[C@@H]1O[C@H](CO)[C@@H](O)[C@@H]1O", "note": "[fludarabine]", "values": [
      {"measurement": "direct antitumor activity (in words)", "setting": "[1]", "value": "direct antitumor effects"},
      {"measurement": "anti-microvascular activity (in words)", "setting": "endothelial cells", "value": "relatively ineffective as anti-microvascular agents"}
    ]}
  ]
}
